Experimental data: publication PMC13598245
No constants are given. Whether binding was seen depends on the method and setting. Some binding calls cover weakened binding; strength is not graded here.

T1: Tau^209-221 p-S214
T1 sequence (peptide, FITC on the N-terminus; phosphoserine at S214): RSRTPSLPTPPTR

T2: MAST1^85-97 p-S90 (Mus musculus)
T2 sequence (peptide, FITC on the N-terminus; phosphoserine at S90): DGRRWSLASLPSS

T3: MAST1^156-168 p-S161 (Mus musculus)
T3 sequence (peptide, FITC on the N-terminus; phosphoserine at S161): RPRSRSLSPGRSP

T4: MAST1 p-Scramble
T4 sequence (peptide, FITC on the N-terminus; phosphoserine at residue 6 of the peptide): PLGDPSGRWARLS

T5: MAST1^158-170 p-S163 (Mus musculus)
T5 sequence (peptide, FITC on the N-terminus; phosphoserine at S163): RSRSLSPGRSPSS

B1: 14-3-3θ (purified, recombinant) (protein, UniProt P27348 1-245)
chain: MEKTELIQKAKLAEQAERYDDMATCMKAVTEQGAELSNEERNLLSVAYKNVVGGRRSAWRVISSIEQKTDTSDKKLQLIKDYREKVESELRSICTTVLELLDKYLIANATNPESKVFYLKMKGDYFRYLAEVACGDDRKQTIDNSQGAYQEAFDISKKEMQPTHPIRLGLALNFSVFYYEILNNPELACTLAKTAFDEAIAELDTLNEDSYKDSTLIMQLLRDNLTLWTSDSAGEECDAAEGAEN
B2: 14-3-3η (purified, recombinant) (protein, UniProt Q04917 1-246)
chain: MGDREQLLQRARLAEQAERYDDMASAMKAVTELNEPLSNEDRNLLSVAYKNVVGARRSSWRVISSIEQKTMADGNEKKLEKVKAYREKIEKELETVCNDVLSLLDKFLIKNCNDFQYESKVFYLKMKGDYYRYLAEVASGEKKNSVVEASEAAYKEAFEISKEQMQPTHPIRLGLALNFSVFYYEIQNAPEQACLLAKQAFDDAIAELDTLNEDSYKDSTLIMQLLRDNLTLWTSDQQDEEAGEGN

Experiments:
Assay in all cases: fluorescence polarisation; fluorescence anisotropy; 2x serial dilution of purified protein mixed with 50 nM N-terminally FITC-conjugated peptide, room temperature, 15 min, 384-well plate; one-site binding model, n = 3; both purified
[1] = biological target: T1, Tau^209-221 p-S214
[2] = biological target: T2, MAST1^85-97 p-S90 (Mus musculus)
[3] = biological target: T3, MAST1^156-168 p-S161 (Mus musculus)
[4] = biological target: T4, MAST1 p-Scramble
[5] = biological target: T5, MAST1^158-170 p-S163 (Mus musculus)

| Binder | binding [1] | binding [2] | binding [3] | binding [4] | binding [5] |
| --- | --- | --- | --- | --- | --- |
| B1 | binds | binds | binds | – | – |
| B2 | – | – | – | no binding | no binding |
